Data reported in paper PMC11274071.
These are yes or no findings as the source states them, for the method shown. In cells and extracts the contact can be indirect. Some results given as binding are weak or reduced against the parent protein; the word gives no strength.

By UniProt entry, the sequences of proteins in these tests, tags left out. Residues count along the entry.
UniProt P25445, residues 26-335: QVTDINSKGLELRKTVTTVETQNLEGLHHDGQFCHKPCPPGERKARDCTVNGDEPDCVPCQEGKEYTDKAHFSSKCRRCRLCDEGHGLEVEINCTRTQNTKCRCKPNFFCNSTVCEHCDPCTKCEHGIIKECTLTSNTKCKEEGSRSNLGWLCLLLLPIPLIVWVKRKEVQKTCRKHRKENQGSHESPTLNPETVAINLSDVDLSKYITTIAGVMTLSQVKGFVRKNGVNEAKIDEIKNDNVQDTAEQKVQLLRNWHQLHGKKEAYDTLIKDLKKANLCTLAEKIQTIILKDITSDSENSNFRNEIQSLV
UniProt P31749: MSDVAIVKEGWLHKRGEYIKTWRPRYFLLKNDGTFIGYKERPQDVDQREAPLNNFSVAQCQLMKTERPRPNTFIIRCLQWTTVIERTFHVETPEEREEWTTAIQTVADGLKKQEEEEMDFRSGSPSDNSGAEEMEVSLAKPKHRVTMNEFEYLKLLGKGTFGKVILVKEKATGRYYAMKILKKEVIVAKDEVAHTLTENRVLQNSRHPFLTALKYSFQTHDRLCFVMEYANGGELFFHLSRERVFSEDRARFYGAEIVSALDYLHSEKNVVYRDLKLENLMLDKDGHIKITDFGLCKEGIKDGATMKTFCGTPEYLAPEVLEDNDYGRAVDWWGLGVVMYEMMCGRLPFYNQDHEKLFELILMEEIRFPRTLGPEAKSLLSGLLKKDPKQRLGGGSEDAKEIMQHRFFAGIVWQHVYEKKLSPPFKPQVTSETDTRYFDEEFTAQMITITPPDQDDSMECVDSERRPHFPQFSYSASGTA
UniProt P04233: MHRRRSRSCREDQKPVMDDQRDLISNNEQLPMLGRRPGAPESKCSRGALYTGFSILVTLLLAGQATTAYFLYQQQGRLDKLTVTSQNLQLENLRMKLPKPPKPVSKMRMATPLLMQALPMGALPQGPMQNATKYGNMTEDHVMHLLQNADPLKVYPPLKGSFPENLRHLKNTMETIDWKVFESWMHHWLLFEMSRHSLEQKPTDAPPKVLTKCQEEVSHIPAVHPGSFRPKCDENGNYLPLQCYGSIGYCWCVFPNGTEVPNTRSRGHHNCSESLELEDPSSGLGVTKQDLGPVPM

Assays:
[1] = molecular target: FAS (human (endogenous in MDA-MB-231)) (UniProt P25445); experiment: co-IP; MDA-MB-231 cells, IP/IB with anti-CD74 (LN-2) and anti-FAS (B-10) antibodies; E1A lysis buffer (250 mM NaCl, 50 mM HEPES pH 7.5, 0.1% NP-40, 5 mM EDTA); cells pre-treated with peptides for 24 h
[2] = molecular target: AKT phosphorylated at S473 (human (endogenous in HEK-293)) (UniProt P31749); experiment: co-IP; HEK-293 lysates precipitated with anti-phospho-AKT1 (Ser473) antibody, blotted with the IN1 antibody against the cytosolic domain of CD74

Substance: CD74 (from UniProt P04233 1-296)
- binding [1]: binds
- binding [2]: binds
